Drug screen on melanoma cell lines: cell count

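Human melanoma cells were exposed to a pair of drugs for 72 h in 1,536-well plates and read by automated microscopy after fixing and staining. The read-out is cell count (nuclei) in % of the DMSO control; lower values mean stronger growth inhibition or killing. Concentrations were fixed for each drug; these are the lower of two levels, a fifth of the higher. No replicate spread is given; individual values may be noisy.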 Only some of the drugs and lines screened are listed, without regard to their results. A dash means that no value is listed here.

Every entry is a combination with IMD-0354 at 16 nM: O=C(Nc1cc(C(F)(F)F)cc(C(F)(F)F)c1)c1cc(Cl)ccc1O

Drug key:
FK866: O=C(/C=C/c1cccnc1)NCCCCC1CCN(C(=O)c2ccccc2)CC1 at 10 nM
GW0742: Cc1cc(SCc2sc(-c3ccc(C(F)(F)F)c(F)c3)nc2C)ccc1OCC(=O)O at 2000 nM
fingolimod: CCCCCCCCc1ccc(CCC(N)(CO)CO)cc1 at 2000 nM
docetaxel: CC(=O)O[C@@]12CO[C@@H]1C[C@H](O)[C@@]1(C)C(=O)[C@H](O)C3=C(C)[C@@H](OC(=O)[C@H](O)[C@@H](NC(=O)OC(C)(C)C)c4ccccc4)C[C@@](O)([C@@H](OC(=O)c4ccccc4)[C@H]21)C3(C)C at 0.1 nM
sunitinib: CCN(CC)CCNC(=O)c1c(C)[nH]c(/C=C2\C(=O)Nc3ccc(F)cc32)c1C at 400 nM
VX-702: NC(=O)c1ccc(N(C(N)=O)c2c(F)cccc2F)nc1-c1ccc(F)cc1F at 400 nM
veliparib: C[C@]1(c2nc3c(C(N)=O)cccc3[nH]2)CCCN1 at 1400 nM
tanespimycin: C=CCNC1=C2C[C@@H](C)C[C@H](OC)[C@H](O)[C@@H](C)/C=C(\C)[C@H](OC(N)=O)[C@@H](OC)/C=C\C=C(/C)C(=O)NC(=CC1=O)C2=O at 2 nM
bortezomib: CC(C)C[C@H](NC(=O)[C@H](Cc1ccccc1)NC(=O)c1cnccn1)B(O)O at 1 nM
PLX4720: CCCS(=O)(=O)Nc1ccc(F)c(C(=O)c2c[nH]c3ncc(Cl)cc23)c1F at 80 nM
vincristine: CC[C@]1(O)C[C@H]2CN(CCc3c([nH]c4ccccc34)[C@@](C(=O)OC)(c3cc4c(cc3OC)N(C=O)[C@H]3[C@@](O)(C(=O)OC)[C@H](OC(C)=O)[C@]5(CC)C=CCN6CC[C@]43[C@@H]65)C2)C1 at 0.1 nM
CX-4945: O=C(O)c1ccc2c(c1)nc(Nc1cccc(Cl)c1)c1ccncc12 at 400 nM
everolimus: CO[C@H]1C[C@@H]2CC[C@@H](C)[C@@](O)(O2)C(=O)C(=O)N2CCCC[C@H]2C(=O)O[C@H]([C@H](C)C[C@@H]2CC[C@@H](OCCO)[C@H](OC)C2)CC(=O)[C@H](C)/C=C(\C)[C@@H](O)[C@@H](OC)C(=O)[C@H](C)C[C@H](C)/C=C/C=C/C=C/1C at 20 nM
gemcitabine: Nc1ccn([C@@H]2O[C@H](CO)[C@@H](O)C2(F)F)c(=O)n1 at 0.4 nM

Second drug	LB2518-MEL	IPC-298	501mel	C32	A2058	A375
tanespimycin	120	100	-	79.9	94.6	86.2
veliparib	-	92.1	-	123	83.6	89.7
FK866	108	50.6	-	112	95.2	112
everolimus	72.2	75.4	-	69.9	71.4	54.1
docetaxel	-	80.0	-	104	22.7	51.8
GW0742	66.9	103	90.6	104	97.1	-
CX-4945	102	97.1	-	116	108	112
PLX4720	103	94.0	-	86.4	102	78.4
fingolimod	106	96.2	-	87.3	102	104
vincristine	104	102	-	83.6	20.1	90.0
bortezomib	62.3	90.4	-	86.9	99.4	93.9
gemcitabine	-	94.5	-	100	91.4	84.5
VX-702	122	106	-	107	99.2	117
sunitinib	134	98.0	-	95.7	111	111

Repeated from the top, 2 entries:

Second drug	LB2518-MEL	IPC-298	501mel	C32	A2058	A375
tanespimycin	120	100	-	79.9	94.6	86.2
veliparib	-	92.1	-	123	83.6	89.7

Source: doi:10.1371/journal.pone.0140310, primary screening data, rounded.